# According to doi:10.1101/2025.07.18.664654:
# Protein sequences, listed by entry. Tags and fused reporters are not part of them.
# UniProt Q9VB08: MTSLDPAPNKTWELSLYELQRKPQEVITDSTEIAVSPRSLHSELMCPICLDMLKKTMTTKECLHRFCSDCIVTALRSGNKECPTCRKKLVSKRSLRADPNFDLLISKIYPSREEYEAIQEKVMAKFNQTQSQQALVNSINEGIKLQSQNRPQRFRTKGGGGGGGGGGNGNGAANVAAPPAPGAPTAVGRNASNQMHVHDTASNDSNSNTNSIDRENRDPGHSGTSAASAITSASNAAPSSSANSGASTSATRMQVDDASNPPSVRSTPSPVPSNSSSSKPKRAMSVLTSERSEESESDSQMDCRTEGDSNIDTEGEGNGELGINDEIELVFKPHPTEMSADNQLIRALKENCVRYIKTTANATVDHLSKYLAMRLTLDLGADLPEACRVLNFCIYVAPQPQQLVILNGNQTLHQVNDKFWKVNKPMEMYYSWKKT
# UniProt P35820: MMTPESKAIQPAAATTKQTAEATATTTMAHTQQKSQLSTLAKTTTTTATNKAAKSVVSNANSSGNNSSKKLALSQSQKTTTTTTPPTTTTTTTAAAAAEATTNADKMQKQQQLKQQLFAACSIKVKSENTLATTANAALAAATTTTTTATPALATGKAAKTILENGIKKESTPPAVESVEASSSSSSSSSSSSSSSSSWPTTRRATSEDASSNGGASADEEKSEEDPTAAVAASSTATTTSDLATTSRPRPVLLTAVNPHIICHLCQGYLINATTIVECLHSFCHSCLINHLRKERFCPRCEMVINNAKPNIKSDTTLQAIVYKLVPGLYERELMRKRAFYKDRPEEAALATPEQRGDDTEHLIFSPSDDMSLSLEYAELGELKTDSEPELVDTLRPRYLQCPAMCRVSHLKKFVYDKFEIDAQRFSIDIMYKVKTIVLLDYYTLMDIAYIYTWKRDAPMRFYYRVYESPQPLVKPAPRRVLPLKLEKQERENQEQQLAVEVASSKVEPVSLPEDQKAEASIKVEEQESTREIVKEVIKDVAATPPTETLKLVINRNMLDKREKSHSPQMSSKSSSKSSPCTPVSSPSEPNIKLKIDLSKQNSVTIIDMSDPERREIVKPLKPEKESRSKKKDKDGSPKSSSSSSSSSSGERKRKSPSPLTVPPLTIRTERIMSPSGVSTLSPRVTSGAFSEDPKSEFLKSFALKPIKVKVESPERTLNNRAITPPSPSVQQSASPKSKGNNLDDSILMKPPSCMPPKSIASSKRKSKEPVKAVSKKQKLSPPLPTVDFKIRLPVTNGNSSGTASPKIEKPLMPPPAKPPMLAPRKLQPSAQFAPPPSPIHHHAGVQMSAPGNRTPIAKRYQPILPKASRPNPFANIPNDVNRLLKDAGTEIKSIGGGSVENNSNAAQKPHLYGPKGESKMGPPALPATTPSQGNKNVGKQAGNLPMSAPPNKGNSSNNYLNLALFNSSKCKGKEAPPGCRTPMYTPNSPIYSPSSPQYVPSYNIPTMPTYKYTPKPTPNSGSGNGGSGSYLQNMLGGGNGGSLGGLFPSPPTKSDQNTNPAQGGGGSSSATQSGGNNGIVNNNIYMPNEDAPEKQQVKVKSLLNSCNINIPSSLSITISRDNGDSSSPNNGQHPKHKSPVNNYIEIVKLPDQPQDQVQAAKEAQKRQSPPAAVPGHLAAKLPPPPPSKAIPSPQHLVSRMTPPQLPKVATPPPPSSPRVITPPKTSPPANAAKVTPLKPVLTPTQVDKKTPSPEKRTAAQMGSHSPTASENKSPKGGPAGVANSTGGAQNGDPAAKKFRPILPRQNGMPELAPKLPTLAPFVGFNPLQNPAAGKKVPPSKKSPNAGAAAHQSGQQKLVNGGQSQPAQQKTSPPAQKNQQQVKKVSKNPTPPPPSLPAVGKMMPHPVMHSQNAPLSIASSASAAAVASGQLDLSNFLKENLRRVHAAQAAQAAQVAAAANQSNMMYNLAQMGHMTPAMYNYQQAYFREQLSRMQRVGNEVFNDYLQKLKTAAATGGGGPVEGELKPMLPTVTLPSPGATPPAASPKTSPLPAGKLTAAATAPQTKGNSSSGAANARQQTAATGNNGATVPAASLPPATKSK
# These are yes or no findings as the source states them, for the method shown. Binding seen in cells or lysates may run through a third protein. Some binding calls cover weakened binding; strength is not graded here.
# B1: Polycomb (Pc) (protein, UniProt P26017 1-390)
# chain: MTGRGKGSKGKLGRDNATDDPVDLVYAAEKIIQKRVKKGVVEYRVKWKGWNQRYNTWEPEVNILDRRLIDIYEQTNKSSGTPSKRGIKKKEKEPDPEPESEEDEYTFTENDVDTHQATTSSATHDKESKKEKKHHHHHHHHHHIKSERNSGRRSESPLTHHHHHHHHESKRQRIDHSSSSNSSFTHNSFVPEPDSNSSSSEDQPLIGTKRKAEVLKESGKIGVTIKTSPDGPTIKPQPTQQVTPSQQQPFQDQQQAEKIASEAATQLKSEQQATPLATEAINTTPAESGAEEEEVANEEGNQQAPQVPSENNNIPKPCNNLAINQKQPLTPLSPRALPPRFWLPAKCNISNRVVITDVTVNLETVTIRECKTERGFFRERDMKGDSSPVA
# Target: RING1 (the product of Sex combs extra (Sce) gene) (Drosophila melanogaster (endogenous in embryos)) (UniProt Q9VB08)
# Experiment: co-IP
row,Molecule,binding
1,Posterior sex combs (Psc) (from UniProt P35820 1-1601),binds
2,B1,binds
